Measurements published in PMC4359148.
No constants are given. Whether binding was seen depends on the method and setting. In cells and extracts the contact can be indirect. Here binding means that the protein was enriched with, or labelled near, the bait; the list need not be complete. Where a sequence is shown, tags or fusion partners need not be part of it.

Target: T1, 3FS-mORRM1 (3xFLAG-strepII-tagged mature ORRM1, expressed from 35S::RecA-3FS-mORRM1) (Arabidopsis thaliana) (UniProt Q8L440)
T1 sequence: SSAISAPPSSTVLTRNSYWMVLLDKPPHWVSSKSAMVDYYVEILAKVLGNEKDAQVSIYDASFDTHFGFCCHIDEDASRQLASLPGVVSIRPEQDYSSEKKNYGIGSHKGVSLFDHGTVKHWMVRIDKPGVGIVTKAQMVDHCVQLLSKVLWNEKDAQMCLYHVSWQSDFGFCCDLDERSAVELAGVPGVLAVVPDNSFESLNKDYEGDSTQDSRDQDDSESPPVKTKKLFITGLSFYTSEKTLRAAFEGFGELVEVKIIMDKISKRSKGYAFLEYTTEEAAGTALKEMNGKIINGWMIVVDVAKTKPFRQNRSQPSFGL
Test: affinity purification with mass spectrometry; anti-FLAG agarose IP of 3FS-mORRM1 from total leaf protein of transgenic plants; wild-type Columbia as negative control; 150 mM NaCl, 50 mM Tris-HCl pH 7.4, 1 mM EDTA, 0.2% NP-40; eluate analysed by nanoLC-LTQ-Orbitrap MS/MS

Substance: OZ1 (Organelle Zinc finger 1), protein encoded by At5g17790
- binding: binds
